First the molecules themselves.
B1: Hu32a-15.IgG4AA (antibody, V domains shown)
VH: EVQLVQSGAEVKKPGSSVKVSCKASGGTFSDYEIHWVRQAPGQGLEWMGLFDPETGGIVYNQKFKGRVTITADKSTSTAYMELSSLRSEDTAVYYCAREGYNRDWYFDVWGQGTTVTVSS
VL: DIVMTQTPLSLPVTPGEPASISCRSSQSLVHSTGNTYLEWYLQKPGQSPQLLIYKVSNRFSGVPDRFSGSGSGTDFTLKISRVEAEDVGVYYCFQGSHVPYTFGGGTKVEIKR
B2: Hu32a-57.IgG4AA (antibody, V domains shown)
VH: B1 VH with G27F, M48I, V68A, I70L, L83F, A97T
VL: B1 VL
B3: Hu32a-71.IgG4AA (antibody, V domains shown)
VH: B1 VH with G26D, G27F, S30T, M48I, V68A, I70L, L83F, A97T
VL: B1 VL
B4: Hu32a-43.IgG4AA (antibody, V domains shown)
VH: B1 VH with G26D, G27F, I70L, A97T
VL: B1 VL
B5: Hu32a-29.IgG4AA (antibody, V domains shown)
VH: B1 VH with G27F, I70L, A97T
VL: B1 VL

The chains behind the UniProt entries cited, without tags or fusion partners. Residues count along the entry.
UniProt Q15116, residues 25-167: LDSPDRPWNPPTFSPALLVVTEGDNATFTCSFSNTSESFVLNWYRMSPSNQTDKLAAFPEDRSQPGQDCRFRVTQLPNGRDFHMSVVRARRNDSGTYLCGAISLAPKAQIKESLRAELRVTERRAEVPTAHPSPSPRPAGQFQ

Changes are numbered by the printed parent chain. These are yes or no findings as the source states them, for the method shown. Some results given as binding are weak or reduced against the parent protein; the word gives no strength.

The assay concerns the target Human PD-1-His protein (Cat. #10377H08H, Sino Biological) (human) (UniProt Q15116). Description: SPR (Biacore), Table 16. A general note: SPR reads the build-up and loss of mass on a sensor chip optically.
Regarding B1, the binding result is “binds”.

B2: the binding result is on record as “binds”.

Consider B3, for which the binding result is reported as “binds”.

In the case of B4, the binding result is recorded as “binds”.

Regarding B5, the binding result is reported as “binds”.
